Results are given in words; binding and its absence hold for the method and conditions named.
Target: Recombinant human VEGF-A165 (human)
Test: SPR; BIAcore, 20 °C; VEGF-A (50 µg/mL in 10 mM sodium acetate, pH 4.5) coupled to an EDC/NHS-activated CM5 chip; anosmin-1 WT injected in PBS with 0.35 M NaCl at 30 µL/min; both purified

binding: no binding (tested: RU less than 70)
B1: Recombinant human anosmin-1 wild-type (natural protein, UniProt P23352 25-680, looked up)
chain: AGPGAAAARRLDESLSAGSVQRARCASRCLSLQITRISAFFQHFQNNGSLVWCQNHKQCSKCLEPCKESGDLRKHQCQSFCEPLFPKKSYECLTSCEFLKYILLVKQGDCPAPEKASGFAAACVESCEVDNECSGVKKCCSNGCGHTCQVPKTLYKGVPLKPRKELRFTELQSGQLEVKWSSKFNISIEPVIYVVQRRWNYGIHPSEDDATHWQTVAQTTDERVQLTDIRPSRWYQFRVAAVNVHGTRGFTAPSKHFRSSKDPSAPPAPANLRLANSTVNSDGSVTVTIVWDLPEEPDIPVHHYKVFWSWMVSSKSLVPTKKKRRKTTDGFQNSVILEKLQPDCDYVVELQAITYWGQTRLKSAKVSLHFTSTHATNNKEQLVKTRKGGIQTQLPFQRRRPTRPLEVGAPFYQDGQLQVKVYWKKTEDPTVNRYHVRWFPEACAHNRTTGSEASSGMTHENYIILQDLSFSCKYKVTVQPIRPKSHSKAEAVFFTTPPCSALKGKSHKPVGCLGEAGHVLSKVLAKPENLSASFIVQDVNITGHFSWKMAKANLYQPMTGFQVTWAEVTTESRQNSLPNSIISQSQILPSDHYVLTVPNLRPSTLYRLEVQVLTPGGEGPATIKTFRTPELPPSSAHRSHLKHRHPHHYKPSPERY
notes: anosmin-1, human, product of the ANOS1 gene; also called anosmin-1 WT; WT; source: 293 T cells (pSecTag2 vector), conditioned media, purified (HisTrap HP column, PD-10 column)

— article PMC6957483, “Anosmin-1 activates vascular endothelial growth factor receptor and its related signaling pathway for olfactory bulb angiogenesis” (Scientific Reports, 2020)
